Assay results reported in the supplement of paper PMC9254222.
The full ranking holds about 1,100 compounds; the median of “Renilla luciferase signal (cell health) relative to plate median” is about 0.97, and the highest 2% start at about 1.6. Only a part is listed here, and it is no random draw.

Tested on: HEK293T (UBE3A T485A transfected, BAR Wnt reporter)
Test: Renilla luciferase signal (cell health) relative to plate median (fold (linear ratio)); higher = higher Renilla signal
Details: 24 h
How it was run: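 HEK293T cells carrying a transfected BAR firefly luciferase Wnt reporter, TK-Renilla and an expression plasmid were exposed to chemicals at 0.01–100 uM for 24 h, with dosing four hours after transfection. Readout used Dual-Glo luciferase. The firefly/Renilla ratio defined Wnt activity and raw Renilla defined cell health, each median-centred per plate. Figures are means of four biological replicates.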

SMILES	Renilla luciferase signal (concentration: 0.1 uM)	Renilla luciferase signal (concentration: 1 uM)	Renilla luciferase signal (concentration: 10 uM)	Renilla luciferase signal (concentration: 100 uM)	Renilla luciferase signal (concentration: 0.01 uM)
CCCCCCC(=O)O [Heptanoic acid]	1.16	1.17	1.22	1.52	–
CCCCCCCCOc1ccc(C(=O)c2ccccc2)c(O)c1 [Octabenzone]	1.14	1.04	1.05	1.13	–
CC(=O)NC1(c2cccc(F)c2)CCN(CC[C@@]2(c3ccc(Cl)c(Cl)c3)CN(c3ccccc3)C(=O)CO2)CC1.O=C(O)CCC(=O)O	1.07	0.952	0.509	0.0198	–
Cl.Clc1cc(Cl)c2c(c1)N=C1CCCCCN1C2	1.18	1.11	1.25	0.238	–
CCCCCCCCCCCCN1CCCC1=O [1-Dodecyl-2-pyrrolidinone]	0.846	0.856	0.929	0.883	–
Cc1ccc2ncccc2c1 [6-Methylquinoline]	0.59	0.634	0.624	0.879	–
Cc1oc(-c2ccccc2)nc1CCOc1ccc(C[C@H](Nc2ccccc2C(=O)c2ccccc2)C(=O)O)cc1 [Farglitazar]	0.762	0.899	0.957	1.58	–
O=c1n(CC2CO2)c(=O)n(CC2CO2)c(=O)n1CC1CO1 (stereo not drawn) [Triglycidyl isocyanurate]	1.41	1.3	0.309	0.0183	–
Clc1ccccc1C(c1ccccc1)(c1ccccc1)n1ccnc1 [Clotrimazole]	0.826	1.07	1.14	1.15	–
CCN(Cc1cccnc1)C(=O)c1cccc(Cl)c1[C@]1(C)C(=O)N(Cc2ccc(OC)cc2OC)c2ccc(Cl)cc21.Cl	1.07	0.917	0.473	0.042	–
CCOC(=O)C(C)Oc1ccc(Oc2nc3ccc(Cl)cc3o2)cc1 (stereo not drawn) [Fenoxaprop-ethyl]	0.851	1.02	1.13	1.78	0.9
CN(C)[C@@H]1C(O)=C(C(N)=O)C(=O)[C@@]2(O)C(O)=C3C(=O)c4c(O)cccc4[C@@](C)(O)[C@H]3C[C@@H]12 [Tetracycline]	0.672	0.805	0.694	1.7	–
C#CC(O)C(CC)CCCC (stereo not drawn) [4-Ethyloct-1-yn-3-ol]	0.974	0.88	1.01	1	–
Cc1[nH]cnc1C[C@H]1CCc2c(C)c3ccccc3n2C1=O.Cl [Fabesetron hydrochloride]	0.837	0.832	0.769	0.043	–
O=[N+]([O-])C(CO)(CO)CO [2-(Hydroxymethyl)-2-nitro-1,3-propanediol]	0.94	0.943	1.08	1.15	–
CCCCC(CC)CN1C(=O)C2C3C=CC(C3)C2C1=O (stereo not drawn)	1.01	1.02	0.814	0.469	0.727
OC1CCCCC1 [Cyclohexanol]	1.14	1.08	1.12	1.46	–
CCCN(CCC)C(=O)SCC	0.898	1.09	0.918	2.92	0.911
C[C@](N)(Cc1ccc(O)c(O)c1)C(=O)O.C[C@](N)(Cc1ccc(O)c(O)c1)C(=O)O.O.O.O [Methyldopa sesquihydrate]	0.955	0.989	0.993	1.29	–
CCCCN(CCCC)CCCC [Tributylamine]	1.11	1.01	1.1	1.34	–

Some values from the entries so far:
Under Renilla luciferase signal (concentration: 0.1 uM), Cc1ccc2ncccc2c1 [6-Methylquinoline] has 0.59
Under Renilla luciferase signal (concentration: 1 uM), C#CC(O)C(CC)CCCC (stereo not drawn) [4-Ethyloct-1-yn-3-ol] has 0.88
Under Renilla luciferase signal (concentration: 10 uM), O=[N+]([O-])C(CO)(CO)CO [2-(Hydroxymethyl)-2-nitro-1,3-propanediol] has 1.08
Under Renilla luciferase signal (concentration: 100 uM), CC(=O)NC1(c2cccc(F)c2)CCN(CC[C@@]2(c3ccc(Cl)c(Cl)c3)CN(c3ccccc3)C(=O)CO2)CC1.O=C(O)CCC(=O)O has 0.0198
Under Renilla luciferase signal (concentration: 0.1 uM), CCCCN(CCCC)CCCC [Tributylamine] has 1.11

Continued.

SMILES	Renilla luciferase signal (concentration: 0.1 uM)	Renilla luciferase signal (concentration: 1 uM)	Renilla luciferase signal (concentration: 10 uM)	Renilla luciferase signal (concentration: 100 uM)	Renilla luciferase signal (concentration: 0.01 uM)
CCN(CC)CCOc1ccc(C(=C(Cl)c2ccccc2)c2ccccc2)cc1.O=C(O)CC(O)(CC(=O)O)C(=O)O [Clomiphene citrate (1:1)]	0.837	0.85	0.818	1.02	–
CC(=O)O.COCCOc1cc2cc(C(=O)NC3CCN(C(C)C)CC3)n(CC(=O)Nc3ccc(Cl)cn3)c2cn1	1.26	1.05	1.06	0.0998	–
CC(=O)c1ccccc1 [Acetophenone]	0.867	0.964	0.94	1.11	–
NC(=O)N1C(=O)C(C(=O)c2cc(Cl)cs2)c2cc(F)c(Cl)cc21 (stereo not drawn)	1.12	1.19	1.14	1.41	–
Cc1cccc(Nc2cc(Cl)nc(SCC(=O)O)n2)c1C [Pirinixic acid]	0.799	0.871	0.861	1.71	–
O=C(O)c1ccc([N+](=O)[O-])cc1 [4-Nitrobenzoic acid]	1.01	0.971	1.08	1.33	–
CNC(CC(=O)O)C(=O)O (stereo not drawn)	1.14	0.949	1.02	1.9	1.02
CC(C)(C)c1csc(-c2cc3cc(OCc4ccccc4CC(=O)O)ccc3o2)n1	0.885	0.877	0.595	0.0363	–
OCCOCCOCCO [Triethylene glycol]	1.08	1.04	1.07	1.09	–
NC(N)=O	0.822	0.881	0.967	1.1	–
O=c1[nH]sc2ccccc12 [1,2-Benzisothiazolin-3-one]	1.17	0.985	0.439	0.0372	–
c1ccc(C(O[C@@H]2CCCN(CCc3ccc4c(c3)OCO4)C2)c2ccccc2)cc1 [Zamifenacin]	1.17	1.18	1.14	1.39	–
CC(C)C(=O)OCC(C)(C)C(OC(=O)C(C)C)C(C)C (stereo not drawn) [2,2,4-Trimethyl-1,3-pentanediol diisobutyrate]	0.923	0.897	0.927	1.06	–
CC(C)CC(C)(O)C#CC(C)(O)CC(C)C (stereo not drawn) [2,4,7,9-Tetramethyl-5-decyne-4,7-diol]	0.987	0.919	0.966	0.295	–
CN(C)[C@@H]1C(O)=C(C(N)=O)C(=O)[C@@]2(O)C(O)=C3C(=O)c4c(O)cccc4[C@@](C)(O)[C@H]3[C@H](O)[C@@H]12.Cl [Oxytetracycline hydrochloride]	–	–	2.28	–	–
CC(C)OC(=O)C(C)(C)Oc1ccc(C(=O)c2ccc(Cl)cc2)cc1 [Fenofibrate]	0.681	0.807	0.783	0.955	–
COc1ccc2sc(C(=O)Nc3nnn[n-]3)c(OC(C)C)c2c1.[Na+]	0.921	0.724	0.388	0.0286	–
OCC(CO)(CBr)CBr [2,2-Bis(bromomethyl)-1,3-propanediol]	0.999	0.961	1.01	1.07	–
OC[C@H]1O[C@@](CO)(O[C@H]2O[C@H](CO)[C@@H](O)[C@H](O)[C@H]2O)[C@@H](O)[C@@H]1O [Sucrose]	1.07	1.06	1.06	1.19	–
COC(=O)c1ccc(O)cc1 [Methylparaben]	0.9	0.928	1	1.22	–

SMILES	Renilla luciferase signal (concentration: 0.1 uM)	Renilla luciferase signal (concentration: 1 uM)	Renilla luciferase signal (concentration: 10 uM)	Renilla luciferase signal (concentration: 100 uM)	Renilla luciferase signal (concentration: 0.01 uM)
CCN(Cc1cccc(S(=O)(=O)[O-])c1)c1ccc(C(=C2C=CC(=[N+](CC)Cc3cccc(S(=O)(=O)[O-])c3)C=C2)c2ccccc2S(=O)(=O)[O-])cc1.[Na+].[Na+]	1.01	1.02	0.97	0.914	–
CCCCCCCC/C=C\CCCCCCCC(=O)OC[C@@H](O)[C@H]1OC[C@H](O)[C@H]1O [Sorbitan, mono-(9Z)-9-octadecenoate]	1	0.88	0.863	0.85	–
CCCCC(CC)COC(=O)CCCCCCCCC(=O)OCC(CC)CCCC (stereo not drawn) [Bis(2-ethylhexyl) decanedioate]	0.914	0.879	0.929	1.19	–
COCCOCCOC [Bis(2-methoxyethyl) ether]	1.08	1.3	1.34	1.31	–
NC(=O)c1nc(-c2cccc(-c3cc(F)ccc3OCC(F)(F)C(F)(F)F)c2)n[n-]1.O.[K+]	0.946	0.78	0.498	0.0369	–
CN1C(=O)CC[C@H]1c1cccnc1 [Cotinine]	0.96	1.03	1.1	0.923	–
O=Cc1ccccc1C=O [1,2-Benzenedicarboxaldehyde]	0.99	0.942	1	1.03	–
CC(C)(O)c1coc(S(=O)(=O)NC(=O)Nc2c3c(cc4c2CCC4)CCC3)c1	0.993	1.01	1.05	0.789	–
COC(=O)CCCCC(=O)OC [Dimethyl adipate]	0.854	0.917	0.874	1.11	–
CCCCCCCCCCCCO [1-Dodecanol]	0.721	0.824	0.728	0.97	–
N[C@@H](Cc1cc(I)c(Oc2ccc(O)c(I)c2)c(I)c1)C(=O)O [3,5,3'-Triiodothyronine]	0.904	1.24	2.47	2.22	–
CC(COCC(C)OC(=O)c1ccccc1)OC(=O)c1ccccc1 (stereo not drawn) [Di(propylene glycol) dibenzoate]	1	0.981	1.08	1.23	–
OCC(CO)n1cnc(-c2ccc(F)cc2)c1-c1ccnc(Oc2ccccc2)n1	0.68	0.813	0.859	0.79	–
O=c1c(-c2ccc(O)cc2)coc2cc(O)cc(O)c12 [Genistein]	0.604	0.77	0.58	1.01	0.617
COc1cccc(-c2ccc(/C=C\CN3CCCCCC3)cc2Cl)c1.Cl	1.01	1.16	1.14	2.06	–
S=C([S-])NCCNC(=S)[S-].S=C([S-])NCCNC(=S)[S-].[Mn+2].[Zn+2] [Mancozeb]	1.15	1.12	1.19	0.0262	1.14
CCc1c(C(=O)NN2CCCCC2)nn(-c2ccc(Cl)cc2Cl)c1-c1ccc(Br)cc1 [Surinabant]	1.06	1.07	0.127	0.363	–
Cn1cnc2c1c(=O)[nH]c(=O)n2C [Theobromine]	0.97	0.856	1.15	1.22	–
CC(=O)CC(C)(C)O [Diacetone alcohol]	1.08	1.15	1.22	1.45	–
CC/C(=C\C(=N/O)C(N)=O)C(C)[N+](=O)[O-] (stereo not drawn)	1.17	1.15	1.15	0.968	–
